PubChem BioAssay AID1259315 | Drosophila RNAi Screening Center, 2017
Screen: 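Genes that modify how toxic zinc chloride is to fly cells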 (primary screen). System: Drosophila S2R+ cells. Knock-down reagent: long dsRNA against Drosophila genes. Duration: 5 days (4 days knock-down, then 1 day with zinc). Challenge: zinc chloride added to 15 mM final for 1 day. Measured: 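ATP luminescence reflecting cell viability after 4 days of knock-down then 1 day with 15 mM zinc chloride; mean z-score of two replicate plates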. Scale: mean ATP z-score: higher = more ATP, more cells surviving zinc. Call rule: 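Hit when the mean ATP z-score exceeds 1.5 or falls below -1.5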.
Here is a random part of 418 reagents tested. 17 of them (4.1%) count as active. 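z-scores average two replicate plates; all hits raised ATP and none lowered it.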 The numbers tell different reagents against one gene apart. Not given: the amount of reagent.

mean ATP z-score, by gene knocked down and reagent
Vps26 (Vacuolar protein sorting 26): #1 0.482 inactive; #2 -0.308 inactive
CG17134: #1 0.442 inactive
Gga: #1 -0.267 inactive; #2 -0.137 inactive
Rgk1 (Rad, Gem/Kir family member 1): #1 0.0466 inactive; #2 -0.348 inactive; #3 -0.265 inactive
Bace (beta-site APP-cleaving enzyme): #1 -0.28 inactive; #2 -0.292 inactive; #3 -0.0927 inactive
sbm (sobremesa): #1 -0.342 inactive; #2 -0.4 inactive
Chc (Clathrin heavy chain): #1 0.345 inactive; #2 -0.155 inactive; #3 -0.11 inactive
CG31926: #1 -0.309 inactive; #2 -0.407 inactive
Vha26 (Vacuolar H[+]-ATPase 26kD subunit): #1 0.532 inactive; #2 0.176 inactive; #3 0.552 inactive
ZnT63C (Zinc transporter 63C): #1 -0.201 inactive; #2 -0.386 inactive; #3 -0.425 inactive
ry (rosy): #1 0.106 inactive; #2 -0.243 inactive; #3 -0.209 inactive
VhaM9.7-c (Vacuolar H[+] ATPase M9.7 subunit c): #1 -0.091 inactive; #2 -0.262 inactive

Sorted by “mean ATP z-score” (low to high): 6 of the entries above
gene knocked down	reagent	mean ATP z-score	Call
ZnT63C (Zinc transporter 63C)	3	-0.425	inactive
ZnT63C (Zinc transporter 63C)	2	-0.386	inactive
ry (rosy)	2	-0.243	inactive
ZnT63C (Zinc transporter 63C)	1	-0.201	inactive
ry (rosy)	1	0.106	inactive
Vha26 (Vacuolar H[+]-ATPase 26kD subunit)	3	0.552	inactive

Additional entries follow.
mean ATP z-score, by gene knocked down and reagent
Mpv17 (Mitochondrial inner membrane protein MPV17): #1 -0.217 inactive; #2 -0.366 inactive
CG4860: #1 -0.198 inactive
Vps25 (Vacuolar protein sorting 25): #1 -0.255 inactive; #2 -0.274 inactive; #3 -0.223 inactive
VhaPPA1-2 (Vacuolar H[+] ATPase PPA1 subunit 2): #1 -0.18 inactive; #2 -0.174 inactive
Rpt6R (Regulatory particle triple-A ATPase 6-related): #1 -0.036 inactive; #2 -0.286 inactive
Gba1a (Glucocerebrosidase 1a): #1 -0.116 inactive
Xpc (Xeroderma pigmentosum, complementation group C): #1 -0.0492 inactive
Acox57D-p (acyl-Coenzyme A oxidase at 57D proximal): #1 -0.151 inactive; #2 -0.502 inactive
Gnptab: #1 -0.31 inactive
VhaAC45 (Vacuolar H[+] ATPase AC45 accessory subunit): #1 0.16 inactive; #2 0.0427 inactive; #3 0.0948 inactive
Gnpat (Glyceronephosphate O-acyltransferase): #1 -0.204 inactive; #2 -0.178 inactive
Pex2 (Peroxin 2): #1 -0.184 inactive; #2 -0.368 inactive
Pex12 (Peroxin 12): #1 4.12 active; #2 -0.462 inactive
fdl (fused lobes): #1 -0.115 inactive; #2 -0.295 inactive
CG7408: #1 -0.211 inactive
VhaSFD (Vacuolar H[+]-ATPase SFD subunit): #1 0.537 inactive; #2 0.086 inactive; #3 0.235 inactive
Had2 (beta Hydroxy acid dehydrogenase 2): #1 0.0687 inactive; #2 0.57 inactive
Arc42 (Activator-recruited cofactor subunit 42): #1 -0.188 inactive; #2 -0.167 inactive; #3 -0.0483 inactive
PMP34 (Peroxisomal Membrane Protein 34): #1 -0.192 inactive; #2 -0.293 inactive
Pex14 (Peroxin 14): #1 -0.0682 inactive; #2 -0.36 inactive
Npc2a (Niemann-Pick type C-2a): #1 -0.12 inactive
or (orange): #1 0.195 inactive; #2 -0.285 inactive; #3 -0.207 inactive
Gba1b (Glucocerebrosidase 1b): #1 -0.119 inactive
CG7997: #1 -0.0228 inactive; #2 -0.148 inactive
